Data from paper PMC9217730.
Results are given in words; binding and its absence hold for the method and conditions named. Binding seen in cells or lysates may run through a third protein. Some results given as binding are weak or reduced against the parent protein; the word gives no strength.

Protein sequences, listed by entry. Tags and fused reporters are not part of them.
UniProt Q96EB6: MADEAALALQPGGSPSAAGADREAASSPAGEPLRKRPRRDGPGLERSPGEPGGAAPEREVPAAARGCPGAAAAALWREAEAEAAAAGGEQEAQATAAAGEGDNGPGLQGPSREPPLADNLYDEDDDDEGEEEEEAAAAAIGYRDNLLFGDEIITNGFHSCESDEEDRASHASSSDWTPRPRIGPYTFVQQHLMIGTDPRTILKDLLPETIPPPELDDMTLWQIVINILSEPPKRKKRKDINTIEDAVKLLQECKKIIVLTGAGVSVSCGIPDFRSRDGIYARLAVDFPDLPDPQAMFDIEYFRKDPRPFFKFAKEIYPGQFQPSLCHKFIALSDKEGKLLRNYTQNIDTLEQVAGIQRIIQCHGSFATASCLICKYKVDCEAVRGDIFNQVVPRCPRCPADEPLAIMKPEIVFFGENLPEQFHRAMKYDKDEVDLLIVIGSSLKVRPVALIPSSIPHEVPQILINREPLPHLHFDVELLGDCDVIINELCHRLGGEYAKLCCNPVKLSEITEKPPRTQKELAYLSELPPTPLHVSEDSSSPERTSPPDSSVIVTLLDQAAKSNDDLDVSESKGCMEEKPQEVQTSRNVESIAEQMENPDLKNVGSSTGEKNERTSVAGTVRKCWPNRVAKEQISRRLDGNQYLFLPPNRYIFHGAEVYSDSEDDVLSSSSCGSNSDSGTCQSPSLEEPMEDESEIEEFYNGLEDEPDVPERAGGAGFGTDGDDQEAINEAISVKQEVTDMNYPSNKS

Target: HA-SIRT1 (NAD-dependent deacetylase Sirtuin 1, full-length) (human) (UniProt Q96EB6)
Assay: co-IP

With “Flag-NSP14 (SARS-CoV-2 nonstructural protein 14, full-length) (from UniProt P0DTD1 5926-6452)” the binding was “binds”.
